At least one structure is not confirmed: it was looked up by name or label, or the drawing left a doubt.
Assay: Fluorescein permeability through GrowDex barrier, absorbance at 515 nm
Format: physicochemical
[1] = two hours later (3 hours after dosing)

O=C1OC2(c3ccc(O)cc3Oc3cc(O)ccc32)c2ccccc21 [fluorescein, Fluorescein]
fluorescein recovered in the left side (1 mg/ml dosed to left side of 1.5% GrowDex barrier, after one hour): 47%
fluorescein recovered in the left side (after three days): 50%
fluorescein recovered in the right side (after three days): 40%
fluorescein recovered in the right side (dosed to left side, after one hour): ~10%
fluorescein recovered in the left side [1]: 52%
fluorescein recovered in the right side [1]: 35%

— patent US12258547B2, “Cell culture plate, method for preparing thereof and method for detecting a substance” (UPM-Kymmene Corporation, priority 2019, dated 2025)
